Measurements taken from patent publication US20260042860A1.
No constants are given. Whether binding was seen depends on the method and setting. Some entries that bind do so weakly or less than the wild type. For some assays here: Tags and fused reporters may be left off the sequences shown.

Legend:
human CD24 (human) = target: T1, human CD24 (human); assay: SPR, Biacore
T1 sequence: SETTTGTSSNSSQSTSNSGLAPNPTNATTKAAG

[1] = target: T2, CD24 on CD24(+) DSRCT cell lines (BER, BER-luc, SK-DSRCT-2-luc) (human); assay: flow cytometry on DSRCT cell line BER
T2 sequence: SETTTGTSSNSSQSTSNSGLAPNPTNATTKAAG

- binding (human CD24 (human)): binds
- binding [1]: binds
B1: murine CD24×CD3 (huOKT3) BsAb (BC303) (bispecific antibody, V domains shown)
V domain 1: DVHLQESGPDLVKPSQSLSLTCTVTGYSITSGYTWHWIRQFPGNTVEWMGYIQYTGSTRYNPALRGRLSISRDTSKNQFFLQLISVTTADTGTYFCARGTTASFDYWGQGTTLTVAS
V domain 2: DIVMSQSPSSLNVSVGEKVTMRCRSSQSLLYSSDQKNYLTWYQQKPGQSPKLLISWASTRASGVPDRFTGSGSGTDFTLTISSVKAEDLGVYYCQQYFIYPLTFGVGTKLGLK
